In the supplement of paper PMC10373366:
The list shows a part of the results. Most values come without repeats; read them as rough.

Test system: patient-derived ovarian cancer cells (PDC)
Experiment: cell growth inhibition ratio vs untreated control (CCK8); higher = stronger inhibition of cell viability
Settings: 10 µM; 48 h
Method: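 Natural product library (Topscience) screened at 10 µM final concentration for 48 h on ovarian cancer A2780 cells and patient-derived ovarian cancer cells (PDC) in 96-well plates; viability read by CCK8 and reported as inhibition ratio (%) relative to untreated control. Single-dose primary screen.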

Structure (SMILES) | cell growth inhibition ratio [%]
COc1ccc2c(c1OC)CN1CCc3cc4c(cc3C1C2)OCO4 (stereo not drawn) [Tetrahydroberberine THB] | 2.64
O=C(O)C1C2CCC(O2)C1C(=O)O (stereo not drawn) [Sodium Demethylcantharidate] | 32.7
C[C@@H]1CC[C@@]2(OC1)O[C@H]1[C@@H](O)[C@H]3[C@@H]4CC[C@H]5C[C@@H](O[C@@H]6O[C@H](CO)[C@H](O[C@@H]7O[C@H](CO)[C@@H](O)[C@H](O[C@@H]8OC[C@@H](O)[C@H](O)[C@H]8O)[C@H]7O[C@@H]7O[C@H](CO)[C@H](O)[C@H](O[C@@H]8O[C@H](CO)[C@@H](O)[C@H](O)[C@H]8O)[C@H]7O)[C@H](O)[C@H]6O)[C@H](O)C[C@]5(C)[C@H]4CC[C@]3(C)[C@H]1[C@@H]2C [Digitonin] | 91.9
S=C=NCc1ccccc1 [Benzyl isothiocyanate] | -6.94
CCCCCCCCC(=O)NCc1ccc(O)c(OC)c1 [Nonivamide] | -3.25
C[C@]12CC[C@H](O)C[C@H]1CC[C@@H]1[C@@H]2CC[C@]2(C)[C@@H](c3ccc(=O)oc3)CC[C@]12O [Bufalin] | 75.2
C[C@@H]1CC[C@@]2(OC1)O[C@H]1C[C@H]3[C@@H]4CC=C5C[C@@H](O[C@@H]6O[C@H](CO)[C@@H](O[C@@H]7O[C@@H](C)[C@H](O)[C@@H](O)[C@H]7O)[C@H](O)[C@H]6O[C@@H]6O[C@@H](C)[C@H](O)[C@@H](O)[C@H]6O)CC[C@]5(C)[C@H]4CC[C@]3(C)[C@H]1[C@@H]2C [Dioscin] | 92.6
CN1[C@@H]2CC[C@H]1C[C@@H](OC(=O)[C@H](CO)c1ccccc1)C2 [L-Hyoscyamine] | -10.8

As a working copy, part of the list above.
Structure (SMILES) | cell growth inhibition ratio [%]
C[C@]12CC[C@H](O)C[C@H]1CC[C@@H]1[C@@H]2CC[C@]2(C)[C@@H](c3ccc(=O)oc3)CC[C@]12O [Bufalin] | 75.2
C[C@@H]1CC[C@@]2(OC1)O[C@H]1C[C@H]3[C@@H]4CC=C5C[C@@H](O[C@@H]6O[C@H](CO)[C@@H](O[C@@H]7O[C@@H](C)[C@H](O)[C@@H](O)[C@H]7O)[C@H](O)[C@H]6O[C@@H]6O[C@@H](C)[C@H](O)[C@@H](O)[C@H]6O)CC[C@]5(C)[C@H]4CC[C@]3(C)[C@H]1[C@@H]2C [Dioscin] | 92.6
